From US20110263642A1, “METHODS FOR TREATMENT OF MULTIPLE SCLEROSIS” (FibroGen, Inc., priority 2008, published 2011)
At least one compound was matched to its structure with a doubt left.

Tests used:
[1] = tested on: EAE animal model of multiple sclerosis; assay: EAE induced by MBP injection in Lewis rats, neurological disease scoring (first study, dosing day 3-21); assay type: in vivo; conditions: 1 mg/kg s.c., day 8 to day 12 after MBP injection
Description: Experimental allergic encephalomyelitis (EAE, also referred to as experimental autoimmune encephalomyelitis) is currently the best animal model of human multiple sclerosis (MS). In this model, induction of EAE occurs following, for example, injection of spinal cord homogenate or central nervous system (CNS) antigens, such as myelin basic protein (MBP), myelin olidgodendrocyte glycoprotein, or proteolipid protein. Approximately 10 days following injection of CNS antigens, susceptible rats (e.g., Lewis rats) develop a progressive paralysis similar to that observed in humans.
Female Lewis rats of approximately 220 grams were used in this study (Janvier; Le Genest St Isle, France). Compounds of the invention were formulated in water containing 10% cremophor and 60 mM L-histidine to achieve a final concentration of either 2 mg/ml or 6 mg/ml. Dexamethasone was dissolved in saline at a concentration of 0.1 mg/ml. […]
Neurological scoring was performed daily from day 7 to day 21 following BP injection. […] Analysis of variance (ANOVA) was performed on data from the measured (clinical score) or the calculated (severity score) parameters. […]
(§1) Cumulative EAE disease score, used as a measure of overall disease severity, was determined by adding all disease/neurological scores for each animal over the time course of the experiment.

[2] = tested on: EAE animal model of multiple sclerosis; assay: EAE induced by MBP injection in Lewis rats, prophylactic versus treatment dosing (second series); assay type: in vivo; conditions: 1 mg/kg s.c., day 8 to day 12 after MBP injection
Description: In another series of experiments, the effectiveness of compounds and methods of the present invention on treating established multiple sclerosis in an EAE model was examined as follows. EAE was induced in female Lewis rats (200-220 g) as described above. Compound of the invention (30 mg/kg) or vehicle control was administered p.o. daily from day 3 to day 21 following MBP injection (prophylactic group) or from the day first symptoms appeared to day 21 (treatment group). Dexamethasone (1 mg/kg) was administered subcutaneously at 1 mg/kg from day 8 to day 12 following MBP injection.
Neurological scoring was performed daily from day 7 to day 21 following […]. Grading of disease severity (i.e., disease score) was based on the following observations performed by two different observers: 0=no abnormality; 1=distal weakness of the tail; 2=complete weakness of the tail; 3=mild weakness in one or two hindlimbs; 4=moderate paraparesia of one or two hindlimbs; 5=total paraplegia. Analysis of variance (ANOVA) was performed on data from the measured (clinical score) or the calculated (severity score) parameters. […]
as §1

C[C@@H]1C[C@H]2[C@@H]3CCC4=CC(=O)C=C[C@]4(C)[C@@]3(F)[C@@H](O)C[C@]2(C)[C@@]1(O)C(=O)CO [Dexamethasone, reference compound]
development of EAE disease (positive control) [1]: prevented the development of EAE disease | development of EAE disease (positive control) [2]: significantly decreased the development of EAE disease
